According to PMC10938814:
These are yes or no findings as the source states them, for the method shown. Binding seen in cells or lysates may run through a third protein. A yes stands for co-enrichment or nearness to the bait. Other partners may have been found.

Amino acid sequences for entries named in this document (tags omitted). A change or cut given only in a name is not applied to a line headed by its entry.
UniProt Q8BK06: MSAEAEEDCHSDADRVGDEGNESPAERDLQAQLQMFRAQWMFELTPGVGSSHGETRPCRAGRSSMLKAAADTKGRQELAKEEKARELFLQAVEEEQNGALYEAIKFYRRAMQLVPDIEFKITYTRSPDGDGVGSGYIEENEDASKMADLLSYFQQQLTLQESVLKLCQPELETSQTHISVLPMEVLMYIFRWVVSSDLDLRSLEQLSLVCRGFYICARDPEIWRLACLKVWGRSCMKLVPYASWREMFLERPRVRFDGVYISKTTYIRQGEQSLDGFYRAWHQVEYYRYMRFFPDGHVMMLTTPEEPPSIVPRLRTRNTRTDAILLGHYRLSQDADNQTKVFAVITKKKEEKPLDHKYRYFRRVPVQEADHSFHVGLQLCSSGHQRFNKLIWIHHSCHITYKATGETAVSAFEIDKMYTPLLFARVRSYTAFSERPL
UniProt Q9D1K2: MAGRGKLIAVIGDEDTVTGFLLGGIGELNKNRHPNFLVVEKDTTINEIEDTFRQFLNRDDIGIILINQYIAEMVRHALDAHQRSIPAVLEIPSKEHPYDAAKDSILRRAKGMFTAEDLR
UniProt P50516: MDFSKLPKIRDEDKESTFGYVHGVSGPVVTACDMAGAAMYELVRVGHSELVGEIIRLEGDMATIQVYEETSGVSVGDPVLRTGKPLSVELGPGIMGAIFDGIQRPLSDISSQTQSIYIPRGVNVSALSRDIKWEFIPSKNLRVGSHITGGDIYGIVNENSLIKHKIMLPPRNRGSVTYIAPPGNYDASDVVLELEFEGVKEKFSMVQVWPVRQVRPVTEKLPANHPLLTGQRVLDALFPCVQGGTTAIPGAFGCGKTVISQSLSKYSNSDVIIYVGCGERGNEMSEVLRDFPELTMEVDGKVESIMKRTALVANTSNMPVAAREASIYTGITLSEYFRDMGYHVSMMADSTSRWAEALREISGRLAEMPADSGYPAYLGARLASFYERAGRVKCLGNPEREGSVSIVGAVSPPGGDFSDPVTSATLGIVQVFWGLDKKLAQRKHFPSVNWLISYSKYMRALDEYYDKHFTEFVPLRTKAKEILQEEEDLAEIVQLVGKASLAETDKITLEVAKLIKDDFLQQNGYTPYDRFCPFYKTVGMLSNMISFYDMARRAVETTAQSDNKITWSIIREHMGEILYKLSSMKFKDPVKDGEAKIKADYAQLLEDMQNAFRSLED

Target: FLAG-tagged Fbxo9-ΔF (stable 889DTC cell line) (mouse) (UniProt Q8BK06)
Test: affinity purification with mass spectrometry; 889DTC cells stably expressing FLAG-Fbxo9-ΔF, treated with 2 mM cross-linker DSP for 30 min at room temperature; NP-40 lysate; anti-FLAG M2 beads; five washes with PBS

| Substance | binding |
| --- | --- |
| Atp6v1f (endogenous, 889DTC) (from UniProt Q9D1K2 1-119) | binds |
| Atp6v1a (endogenous, 889DTC) (from UniProt P50516 1-617) | binds |
